The assay addresses BirA*-FLAG-PEAK1 (human) (UniProt Q9H792). Kind of assay: proximity labelling; BioID: BirA*-Flag bait in Flp-In T-REx 293 cells, tetracycline and 50 µM biotin 24 h, RIPA lysis, streptavidin beads, mass spectrometry, SAINTexpress against BirA*-Flag-EGFP.

Amino acid sequences for entries named in this document (tags omitted). Residues count along the entry.
UniProt Q9H792: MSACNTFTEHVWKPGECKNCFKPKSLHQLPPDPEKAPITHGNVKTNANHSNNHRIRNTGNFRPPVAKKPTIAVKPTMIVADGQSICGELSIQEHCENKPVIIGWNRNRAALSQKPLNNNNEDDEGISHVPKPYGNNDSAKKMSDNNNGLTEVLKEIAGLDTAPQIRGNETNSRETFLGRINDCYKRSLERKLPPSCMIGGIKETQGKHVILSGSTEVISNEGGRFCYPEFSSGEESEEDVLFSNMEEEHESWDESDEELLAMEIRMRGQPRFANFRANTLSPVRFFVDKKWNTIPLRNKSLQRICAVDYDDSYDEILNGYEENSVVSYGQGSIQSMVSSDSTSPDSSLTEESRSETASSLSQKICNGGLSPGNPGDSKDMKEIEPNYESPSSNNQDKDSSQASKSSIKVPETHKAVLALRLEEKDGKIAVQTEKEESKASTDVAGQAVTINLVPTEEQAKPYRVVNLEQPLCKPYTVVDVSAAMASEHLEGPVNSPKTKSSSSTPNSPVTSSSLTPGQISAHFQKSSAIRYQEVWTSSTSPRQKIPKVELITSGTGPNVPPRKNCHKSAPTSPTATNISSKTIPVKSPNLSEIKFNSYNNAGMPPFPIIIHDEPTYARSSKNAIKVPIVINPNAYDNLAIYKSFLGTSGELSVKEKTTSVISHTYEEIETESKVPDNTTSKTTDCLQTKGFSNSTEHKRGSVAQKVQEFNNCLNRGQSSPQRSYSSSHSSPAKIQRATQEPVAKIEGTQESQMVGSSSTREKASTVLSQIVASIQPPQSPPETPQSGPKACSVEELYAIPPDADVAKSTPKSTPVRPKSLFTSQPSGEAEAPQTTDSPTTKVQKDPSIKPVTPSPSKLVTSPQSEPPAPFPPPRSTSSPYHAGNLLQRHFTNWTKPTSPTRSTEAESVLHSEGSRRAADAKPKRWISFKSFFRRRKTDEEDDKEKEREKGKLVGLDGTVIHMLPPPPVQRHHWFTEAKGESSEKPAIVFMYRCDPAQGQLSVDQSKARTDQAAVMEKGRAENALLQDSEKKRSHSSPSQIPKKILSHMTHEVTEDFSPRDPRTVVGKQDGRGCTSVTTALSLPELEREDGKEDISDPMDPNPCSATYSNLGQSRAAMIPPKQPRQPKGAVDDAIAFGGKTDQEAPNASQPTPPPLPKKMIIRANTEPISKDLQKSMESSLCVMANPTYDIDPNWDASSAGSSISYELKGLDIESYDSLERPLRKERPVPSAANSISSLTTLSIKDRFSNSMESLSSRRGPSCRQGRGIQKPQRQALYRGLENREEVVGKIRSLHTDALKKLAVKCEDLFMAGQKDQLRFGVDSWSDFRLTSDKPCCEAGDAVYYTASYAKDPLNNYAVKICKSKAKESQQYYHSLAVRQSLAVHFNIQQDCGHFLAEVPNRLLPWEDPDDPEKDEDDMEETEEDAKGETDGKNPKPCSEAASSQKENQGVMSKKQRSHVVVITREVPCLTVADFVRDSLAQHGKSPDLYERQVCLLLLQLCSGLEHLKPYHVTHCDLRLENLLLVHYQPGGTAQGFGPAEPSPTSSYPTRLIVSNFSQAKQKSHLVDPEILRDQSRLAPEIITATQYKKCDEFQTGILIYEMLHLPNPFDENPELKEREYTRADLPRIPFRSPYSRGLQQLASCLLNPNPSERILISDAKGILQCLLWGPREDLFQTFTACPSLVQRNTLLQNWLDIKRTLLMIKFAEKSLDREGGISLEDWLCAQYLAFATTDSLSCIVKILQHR
UniProt P29317, residues 24-976: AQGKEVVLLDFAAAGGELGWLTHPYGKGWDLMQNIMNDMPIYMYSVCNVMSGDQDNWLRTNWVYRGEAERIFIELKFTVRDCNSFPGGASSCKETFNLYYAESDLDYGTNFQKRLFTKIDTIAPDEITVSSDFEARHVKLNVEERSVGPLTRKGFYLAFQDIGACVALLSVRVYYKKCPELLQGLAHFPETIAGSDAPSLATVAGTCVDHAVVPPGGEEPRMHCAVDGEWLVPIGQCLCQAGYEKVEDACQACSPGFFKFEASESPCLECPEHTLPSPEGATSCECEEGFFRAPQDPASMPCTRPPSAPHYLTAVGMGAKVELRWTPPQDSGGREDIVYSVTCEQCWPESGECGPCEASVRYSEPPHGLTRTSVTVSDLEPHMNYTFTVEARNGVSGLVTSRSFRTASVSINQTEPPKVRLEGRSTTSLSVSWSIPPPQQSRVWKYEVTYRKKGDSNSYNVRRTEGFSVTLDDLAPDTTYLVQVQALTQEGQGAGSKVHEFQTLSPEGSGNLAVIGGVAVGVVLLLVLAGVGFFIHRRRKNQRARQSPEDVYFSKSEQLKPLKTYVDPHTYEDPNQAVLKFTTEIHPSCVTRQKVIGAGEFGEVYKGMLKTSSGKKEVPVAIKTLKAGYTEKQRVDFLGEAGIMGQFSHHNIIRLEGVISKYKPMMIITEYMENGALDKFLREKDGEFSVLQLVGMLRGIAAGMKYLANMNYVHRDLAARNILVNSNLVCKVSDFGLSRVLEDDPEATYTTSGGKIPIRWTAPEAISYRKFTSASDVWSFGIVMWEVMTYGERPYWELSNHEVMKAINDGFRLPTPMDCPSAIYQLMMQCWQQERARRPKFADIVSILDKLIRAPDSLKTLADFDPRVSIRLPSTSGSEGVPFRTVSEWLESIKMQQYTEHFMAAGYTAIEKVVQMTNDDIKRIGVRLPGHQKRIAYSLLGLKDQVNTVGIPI

No constants are given. Whether binding was seen depends on the method and setting. In cells and extracts the contact can be indirect. Here binding means that the protein was enriched with, or labelled near, the bait; the list need not be complete.

Drawing on article PMC7368075, this text covers binding for two substances.

CRKII (from UniProt P46108-1 1-304): the binding result is given as “binds”.
In the case of “EPHA2 (from UniProt P29317 24-976) (receptor)” it was “binds”.
